Measurements published in paper PMC12040169 (PLOS Biology, 2025).
The other results are listed elsewhere or left out.

Tested on: T1, CTL2-GFP (C. trachomatis L2/434/Bu, GFP-expressing)
T1 construct: L2/434/Bu, GFP-expressing
Parameters: species or system HeLa; Intracellular C. trachomatis growth in HeLa cells, bulk GFP fluorescence relative to DMSO
Settings: bulk GFP, single well; 28.5 h, 10 µM; inhibitor

First: O=c1c2cc(F)ccc2nc2n1CCN(Cc1ccccc1)CC2 [CBK285300]
Second: O=C1/C(=N\O)c2ccccc2N1Cc1ccccc1 [CBK288484]
The “% of control remaining” value of the first is lower: 114.846% for the first, 117.908% for the second.

First: Cc1ccc(Oc2cc(C)c([N+](=O)[O-])cn2)c(Br)c1 [CBK002823]
Second: Cc1ccc(C)c(OCCNS(=O)(=O)c2cc([N+](=O)[O-])ccc2C)c1 [CBK267393]
The “% of control remaining” value of the first is lower: 112.187% for the first, 112.458% for the second.

Going from `CCOC(=O)c1c(NS(=O)(=O)c2cc(Cl)sc2Cl)sc2c1CCCC2` [CBK050397] to `CC(c1ccc(Cl)cc1Cl)N(C)C(=O)Cn1cnc2c1CCCC2` (stereo not drawn) [CBK306387], the “% of control remaining” value falls from 86.7522% to 80.635%.

Going from `CSC1=Nc2cc(Cl)ccc2SCC1` [CBK019829] to `O=C(Nc1ccc(Cl)cc1Cl)C1CC2CCC1C2` (stereo not drawn) [CBK058237], the “% of control remaining” value falls from 127.882% to 118.92%.

Compared with `O=C(O)c1ccc(COc2ccccc2/C=N/O)cc1` [CBK288481], `COc1ccccc1CN(C)C(C)C(=O)Nc1ccc(NC(C)=O)cc1` (stereo not drawn) [CBK305873] is higher in “% of control remaining” value: 112.512% for the first, 125.872% for the second.

Compared with `CN(C)CCN(C)c1cncc(-c2ccc(F)cc2F)n1` [CBK065652], `CC(=O)Nc1nc(-c2ccccc2C)ccc1C(=O)N(C)C` [CBK106328] is lower in “% of control remaining” value: 174.52% for the first, 96.0833% for the second.

Going from `Cc1ccc2[nH]nc(C(=O)NC(C)c3ccccn3)c2c1` (stereo not drawn) [CBK281887] to `CCNC(=O)Nc1cc2cccnc2c(-c2ccsc2)n1` [CBK081226], the “% of control remaining” value rises from 107.277% to 168.249%.

First: CC(=O)NCc1cccc(-c2cc(C(=O)NCCc3cccc(OC(F)(F)F)c3)cnc2-c2ccc(Cl)cc2)c1 [CBK164414]
Second: COc1cccc(N(CC(=O)Nc2ccc(C)c(C)c2)S(=O)(=O)c2ccc(C)cc2)c1 [CBK263761]
The “% of control remaining” value of the first is higher: 101.142% for the first, 97.8231% for the second.

First: O=C(Nc1nc2ccc(Br)cc2s1)C1CC2CCC1C2 (stereo not drawn) [CBK026397]
Second: O=C(c1cccc(Br)c1)N1CCN(S(=O)(=O)N2CCOCC2)CC1 [CBK267470]
The “% of control remaining” value of the first is lower: 120.171% for the first, 137.777% for the second.

First: CC(C)C(=O)N1CC2(CCN(Cc3cccc(C(F)(F)F)c3)CC2)c2ccccc21 [CBK126716]
Second: FC(F)(F)c1cccc(CSc2nccnc2N2CCCC2)c1 [CBK107178]
The “% of control remaining” value of the first is lower: 55.317% for the first, 137.496% for the second.

Compared with `OCCN(CC#CC(O)(c1ccccc1)c1cccc(F)c1)CCO` (stereo not drawn) [CBK301210C], `O=C(C[n+]1ccccc1)c1ccccc1Cl` [CBK016283B] is lower in “% of control remaining” value: 155.204% for the first, 117.376% for the second.

Compared with `Cc1cc(C)n(CC(=O)Nc2cccc(CCc3ccncc3)c2)c(=O)n1` [CBK285555], `CSCCC(=O)Nc1ccc2c(ccn2Cc2ccccc2)c1` [CBK159732] is lower in “% of control remaining” value: 137.059% for the first, 74.5404% for the second.

Compared with `COc1cccc(C(c2ccccn2)N(C)C(=O)C2CCN(S(=O)(=O)c3c(C)noc3C)CC2)c1` (stereo not drawn) [CBK060212], `COc1ccc2c(c1)CC(=O)NC21CCN(C(=O)N[C@@H](C)c2ccccc2)CC1` [CBK047325] is lower in “% of control remaining” value: 173.355% for the first, 103.086% for the second.

First: O=C(N[C@H]1COC(=O)N1)OCc1ccccc1 [CBK007606]
Second: O=c1cc(O)cc(CCc2ccccc2)o1 [CBK012714]
The “% of control remaining” value of the first is higher: 117.501% for the first, 101.283% for the second.

Compared with `O=C(N[C@H]1CCN2C(=O)c3cc(-c4cccs4)ccc3NC(=O)[C@@H]2C1)c1cnccn1` [CBK289559], `Cc1ccc(-c2cc(C(=O)NCCCn3ccnc3)no2)cc1` [CBK268200] is lower in “% of control remaining” value: 111.141% for the first, 96.8755% for the second.

First: c1ccc(N2CCN(CC3CN(c4ccccc4)c4ccccc4O3)CC2)cc1 (stereo not drawn) [CBK066876]
Second: O=C(O)CN1/C(=C\C=C2/SC(=S)N(c3ccccc3)C2=O)Sc2ccccc21 [CBK265251]
The “% of control remaining” value of the first is higher: 109.316% for the first, 100% for the second.

Going from `O=C(c1cncnc1)N1CCN(c2ncccn2)CC1` [CBK144515] to `O=C(c1ccco1)N1CCN(c2cc(-c3cc(C(F)(F)F)cc(C(F)(F)F)c3)ncn2)CC1` [CBK037734], the “% of control remaining” value falls from 126.856% to 88.32%.

First: O=C(CCN1C(=O)c2cccc([N+](=O)[O-])c2C1=O)Nc1cccc(-c2cnc3ccccc3n2)c1 [CBK268620]
Second: O=C(Oc1ccc(-c2cnc3ccccc3n2)cc1)c1ccc(S(=O)(=O)N2CCCCC2)cc1 [CBK267812]
The “% of control remaining” value of the first is lower: 126.565% for the first, 129.531% for the second.

Compared with `Cc1ccc(S(=O)(=O)NC(C)C(=O)Nc2ccc(C)c(Cl)c2)cc1` (stereo not drawn) [CBK266263], `Cc1ccc(S(=O)(=O)NNC(=O)COc2cccc3cccnc23)cc1` [CBK268788] is lower in “% of control remaining” value: 189.072% for the first, 96.2372% for the second.

Compared with `CCOC(=O)c1cn([C@H]2CC[C@H](O)CC2)cc(Oc2ccccc2)c1=O` [CBK307565], `COc1cccc(NC(=O)CC(CN2CCC(O)CC2)C(=O)O)c1` (stereo not drawn) [CBK286842] is higher in “% of control remaining” value: 107.328% for the first, 135.871% for the second.

First: COCCn1c(SCC(=O)N2CCNC2=O)nc2ccccc21 [CBK305851]
Second: CCn1c(CCCNC=O)nc2ccccc21 [CBK269551]
The “% of control remaining” value of the first is lower: 109.889% for the first, 136.438% for the second.

First: CCc1nc(C(C)NC(=O)COc2nn(C)c3nc(C)cc(C)c23)cs1 (stereo not drawn) [CBK306024]
Second: CCOC(=O)c1cnn2c(O)cc(CN(CC(C)(C)O)C(C)C)nc12 [CBK306133]
The “% of control remaining” value of the first is higher: 125.362% for the first, 110.509% for the second.

Going from `Cc1n[nH]c(O)c1C(c1ccc(OC(=O)c2ccc(F)cc2)cc1)c1c(C)n[nH]c1O` [CBK264816] to `Nc1ncc(-c2cccc(F)c2)nc1Nc1ccc2[nH]ccc2c1` [CBK063851], the “% of control remaining” value rises from 128.348% to 149.623%.

Compared with `COc1c(Br)cc(Br)cc1/C=C1/SC(=N)NC1=O` [CBK119298], `COc1ccc(C(C)C)cc1-c1nc2ncccc2cc1NC(=O)C(C)C` [CBK073659] is lower in “% of control remaining” value: 138.803% for the first, 125.545% for the second.

Compared with `Cn1nc2c(c1C(=O)N1CCc3[nH]c4ccccc4c3C1)CCCC2` [CBK281844], `COCC(=O)N1CCc2nc(-c3ccc(F)cc3)sc2C1` [CBK281673] is lower in “% of control remaining” value: 137.939% for the first, 59.9525% for the second.

Going from `CC[C@H](Cn1ncc2ccccc2c1=O)NC(=O)CC(C)C` [CBK284305] to `O=C(CCn1c(C(F)F)cc2cccnc21)NCc1ccccn1` [CBK285068], the “% of control remaining” value rises from 116.689% to 144.571%.

First: O=[N+]([O-])c1ccccc1CN1C[C@H](O)C[C@H]1c1nc(-c2ccncc2)no1 [CBK288839]
Second: Cn1c(SCCCN2C(=O)c3cccc4cccc(c34)C2=O)nnc1-c1ccncc1 [CBK268951]
The “% of control remaining” value of the first is lower: 126.023% for the first, 132.234% for the second.

Going from `Cc1ccc(NC(=O)CCC(=O)N/N=C/c2ccco2)c(C)c1` [CBK263885] to `Cc1ccc(NC(=O)C(=O)NCCCn2ccnc2)cc1C` [CBK264157], the “% of control remaining” value rises from 96.5422% to 118.146%.

Going from `CC(=O)Nc1c[nH]nc1C1CCCN(c2cccc(F)c2C#N)C1` (stereo not drawn) [CBK306401] to `Cc1nccn1CC1CCCN(Cc2nc3ccccc3[nH]2)C1` (stereo not drawn) [CBK281619], the “% of control remaining” value rises from 129.934% to 145.675%.

First: O=C1NC(CCSC2=NCN=N2)Oc2ccccc21 (stereo not drawn) [CBK009148]
Second: COc1ncc(-c2nccnc2OCC2COc3ccccc3O2)c(OC)n1 (stereo not drawn) [CBK106754]
The “% of control remaining” value of the first is higher: 126.289% for the first, 111.237% for the second.

First: O=C(c1nccs1)C1CCN(C(=O)c2cc(F)cc(F)c2)CC1 [CBK284200]
Second: O=C(NCCCn1ccnc1)C1CCN(C(=O)c2cccc(Cl)c2)CC1 [CBK307596]
The “% of control remaining” value of the first is higher: 114.951% for the first, 98.7145% for the second.

Compared with `O=C1CCC(=O)N1CCOc1nccnc1N1CCN(CCc2c[nH]c3ccccc23)CC1` [CBK084304], `c1ccc(OCCSc2cc(N3CCCC3)ncn2)cc1` [CBK103689] is higher in “% of control remaining” value: 55.4361% for the first, 90.1217% for the second.

First: NC(=O)C1CCCN(S(=O)(=O)c2ccc(S(N)(=O)=O)cc2)C1 (stereo not drawn) [CBK266312]
Second: CC12CN3CC(C)(CN(C1)C3c1cc(Br)ccc1O)C2O (stereo not drawn) [CBK262664]
The “% of control remaining” value of the first is higher: 134.75% for the first, 97.8777% for the second.

Going from `CCC(CC)C(=O)N1CCn2c(nnc2-c2cncc(Br)c2)C1` [CBK304409] to `Cc1nc(N)nc(N2CCN(C)CC2)n1` [CBK015681], the “% of control remaining” value falls from 113.258% to 105.275%.

Going from `O[C@@]1(c2ccccn2)CC[C@H]2CN(CC3CCCCC3)C[C@H]21` [CBK282996] to `S=C(NCCc1ccccn1)NCCN1CCOCC1` [CBK268296], the “% of control remaining” value falls from 130.571% to 93.0817%.

Going from `CCCCNc1ncncc1-c1ccc(Br)cc1` [CBK005014C] to `Cc1ccc(NC(=O)CSc2nnc(-c3cnccn3)s2)cc1` [CBK269872], the “% of control remaining” value rises from 66.1886% to 132.421%.

Going from `CC1=[N+]([O-])C2(N)CCc3nonc3C2(O)C1` (stereo not drawn) [CBK261513] to `CC1CCc2onc(C(=O)NCc3nccn3C)c2C1` (stereo not drawn) [CBK281514], the “% of control remaining” value rises from 113.353% to 126.576%.

Going from `CC1CCN(C(=O)C2CCCCC2C(=O)O)CC1` (stereo not drawn) [CBK028392] to `CCC1CCCCN1Cc1nc2c(c(=O)n(C)c(=O)n2C)n1CCCO` (stereo not drawn) [CBK269365], the “% of control remaining” value rises from 122.145% to 189.975%.

First: Cn1ccnc1SCCNC(=O)c1cccc(Cn2cccn2)c1 [CBK282112]
Second: Cc1cccnc1C(Cc1ccsc1)NC(=O)Cn1ccnc1 (stereo not drawn) [CBK284802]
The “% of control remaining” value of the first is lower: 124.402% for the first, 169.942% for the second.

Going from `CCc1nn(CC(=O)NCC2CC2)c(=O)c2cc3sc(C)cc3n12` [CBK284100] to `NC1CC(c2cc(NCCOc3ccccc3Cl)ncn2)C1` (stereo not drawn) [CBK307167], the “% of control remaining” value rises from 108.884% to 143.774%.

In the case of `Cc1ccc(CNS(=O)(=O)c2ccc3ccccc3c2)cc1` [CBK266501], the “% of control remaining” value is reported as 113.121%.
